Data reported in paper PMC12367838, “Relevance of kinetic interactions and co-formulants for plant protection product liver toxicity in vitro” (Archives of Toxicology, 2025).
Not every entry of the source has a single result; some have several. This list holds those alone. The source may hold further records. Values given together differ for a reason that is not stated; dose, time, organism, isomer or construct need not be as stated for each record.

Test system: HepaRG cells
Assay: Total RNA sequencing, differential gene expression
Conditions: low sub-cytotoxic concentration, 24 h, vs solvent control

`C#CCOc1ccc(CCNC(=O)C(OCC#C)c2ccc(Cl)cc2)cc1OC` (stereo not shown) [MDP, mandipropamid] was tested, and the “CYP3A4 Fold change” value was “≈ twofold and 2.0688”.
